Test results published in PubChem BioAssay AID1347131 (National Center for Advancing Translational Sciences (NCATS), 2019).
Several values for one entry are separate records, joined by “and”; a condition that tells them apart may be missing. Equal entries are not always repeated. Out of some 410,000 compounds screened, about 2,000 (0.49%) were called active. The inconclusive results got no clear call from the source; some entries with a clear call stand among them for comparison. Calls follow the shape of the full dose curve; tested in HEK293 reporter line. A potency beside an inconclusive call is a rough fit, not a confirmed value.

experiment: qHTS Assay for Foot and Mouth Disease Virus Antivirals: Primary Screen against the MLPCN compound library; conditions: FMDV antiviral cell-based qHTS; activity, negative = inhibition: at 57.9 µM (top of the series); also: nearly all actives have a fitted effect of over 55% in size
Potency is read from the fitted curve at half-maximal effect.

SMILES | Potency | activity, negative = inhibition
Cc1nc2c(OCc3ccc(C#N)cc3)cccn2c1N(C)Cc1cccs1 | inconclusive: 28.2 µM [inhibitor, single point] | –
COc1cccc(CNC(=O)c2cccc(-n3c(C)nc4cccnc43)c2)c1OC | inconclusive: 12.6 µM [inhibitor, partial curve, poor fit] | –
Cc1nn(-c2ccccc2)c(Cl)c1/C=N/Nc1ccc(Cl)c(C(=O)O)c1 | inconclusive: 10 µM [inhibitor, partial curve, poor fit] | –
CC(=O)c1cc(-c2ccccc2)n(CC(=O)Nc2ccc(C)c(C)c2)c1C | inactive | –
COc1ccccc1/C=C/C=N/Nc1cccc(C(=O)O)c1 | inconclusive: 20 µM [inhibitor, single point] | –
CC1CN(S(=O)(=O)c2cccc(C(=O)OCc3cc(=O)oc4cc(O)ccc34)c2)CC(C)O1 (centres undefined) | inconclusive: 22.4 µM [inhibitor, partial curve, poor fit] | –
CCOC(=O)N1CCC(NC(=O)c2cc(S(=O)(=O)N3CCC4(CC3)OCCO4)ccc2F)CC1 | inconclusive: 14.1 µM [inhibitor, partial curve] | –
O=C(Nc1cccc(-c2nc3ccccc3o2)c1)C(F)(F)F | inconclusive: 31.6 µM [inhibitor, partial curve, poor fit] | –
Cc1ccc(-n2c(O)c(C=Nc3ccc(S(=O)(=O)Nc4ncccn4)cc3)c3ccccc3c2=O)cc1C | inconclusive: 28.2 µM [inhibitor, partial curve, poor fit] | –
COc1ccc(C2=NS(=O)(=O)N(C)C(C(=O)Nc3ccc(C)cc3)=C2)cc1 | inconclusive: 2.51 µM [inhibitor, full curve] | –
Cc1ccc(Cn2nnc3c(=O)[nH]c(C4CCN(S(=O)(=O)c5ccc(C)cc5)CC4)nc32)cc1 | inconclusive: 15.8 µM [inhibitor, partial curve] | –
Cc1ccc(C(C(=O)NC2CCCCC2)N(Cc2ccco2)C(=O)C2COc3ccccc3O2)o1 (centres undefined) | inconclusive: 28.2 µM [inhibitor, partial curve, poor fit] | –
Cc1ccc(Cn2c(NCCc3ccccc3)nc3c2c(=O)n(C)c(=O)n3C)cc1 | inconclusive: 15.8 µM [inhibitor, partial curve, poor fit] | –
N#CC(C#N)=C1c2cc(S(N)(=O)=O)ccc2-c2ccc(S(N)(=O)=O)cc21 | inconclusive: 25.1 µM [inhibitor, partial curve, poor fit] | –
CCCN1C(=O)/C(=C/c2cc(C)n(C)c2C)SC1=Nc1ccc(OC)cc1 | inconclusive: 8.91 µM [inhibitor, partial curve, poor fit] | –
COCCCNC(=O)c1ccc2c3c(onc13)-c1ccccc1C2=O | inconclusive: 12.6 µM [inhibitor, partial curve, poor fit] | –
CCOc1ccc(N2C(=O)c3[nH]nc(-c4ccc(OC)cc4)c3C2c2cccs2)cc1 (centres undefined) | inconclusive: 39.8 µM [inhibitor, partial curve, poor fit] | –
O=C(c1ccc(=O)n(Cc2ccccc2)n1)N1CCN(C/C=C/c2ccccc2)CC1 | active: 15.8 µM | –
COc1cc(C(=O)N2CCN(c3ncnc4sc(C)c(C)c34)CC2)cc(OC)c1OC | inconclusive: 11.2 µM [inhibitor, partial curve, poor fit] | –
Cc1ccccc1-c1nc(CN2CCCC(C(=O)NCc3cccnc3)C2)c(C)o1 (centres undefined) | inconclusive: 14.1 µM [inhibitor, partial curve] | –
COc1cccc(/C=N/NC(N)=S)c1OCc1cccc(Cl)c1 | active: 22.4 µM | –
COc1ccc2[nH]c(=O)c(CN(C(=O)c3cccnc3)c3ccc(C)c(C)c3)cc2c1 | inconclusive: 17.8 µM [inhibitor, partial curve] | –
O=C(c1ccccc1)c1c2c(cc3sc4ccccc4[n+]13)-c1cccc3cccc-2c13 | inconclusive: 39.8 µM [inhibitor, partial curve, poor fit] | –
Cc1cc(C)nc(Sc2nc(Cl)nc(N(c3ccccc3)c3ccccc3)n2)n1 | inconclusive: 35.5 µM [inhibitor, partial curve, poor fit] | –
CC(=O)c1c(C)[nH]c(C(=O)OCC(=O)Nc2ccc(Cl)c(S(=O)(=O)N(C)C)c2)c1C | inconclusive: 28.2 µM [inhibitor, partial curve, poor fit] | –
O=C(c1cnc(N2CCN(c3ncccn3)CC2)c2ccccc12)N1CCN(c2ccccn2)CC1 | inconclusive: 28.2 µM [inhibitor, partial curve, poor fit] | –
CCc1ccc(/C=C/C(=O)c2c(C)cc(C)[nH]c2=O)cc1 | inconclusive: 28.2 µM [inhibitor, partial curve, poor fit] | –

Retrieved by compound from the list above:
SMILES | Potency | activity, negative = inhibition
N#CC(C#N)=C1c2cc(S(N)(=O)=O)ccc2-c2ccc(S(N)(=O)=O)cc21 | inconclusive: 25.1 µM [inhibitor, partial curve, poor fit] | –
CC(=O)c1cc(-c2ccccc2)n(CC(=O)Nc2ccc(C)c(C)c2)c1C | inactive | –
COCCCNC(=O)c1ccc2c3c(onc13)-c1ccccc1C2=O | inconclusive: 12.6 µM [inhibitor, partial curve, poor fit] | –

Going on with the list:

SMILES | Potency | activity, negative = inhibition
COc1ccc(NC(=O)c2nc(S(=O)(=O)Cc3cccc(C)c3)ncc2Cl)c(OC)c1 | inconclusive: 3.16 µM [inhibitor, partial curve, poor fit] | –
Cc1ccc2c(c1)N(C(=O)Nc1cccc3c1CCCC3)CCO2 | inactive | –
COc1ccc(O)c(C2=Nc3ccccc3N=C(c3ccccc3)C2)c1 | inconclusive: 25.1 µM [inhibitor, partial curve, poor fit] | –
C=C1C(=O)O[C@H]2[C@H]1[C@@H](O)CC(=C)[C@@H]1CC(=O)[C@@H](C)[C@H]21 | inconclusive: 22.4 µM [inhibitor, partial curve, poor fit] | –
COc1ccc(C(=O)/C=C/C(=O)N(CC(=O)NCCC(C)C)Cc2cccs2)c(O)c1 | inconclusive: 3.55 µM [inhibitor, full curve, poor fit] | –
CCN1/C(=C/c2ccc3cc(C)ccc3[n+]2CC)Sc2ccc3sccc3c21 | inconclusive: 35.5 µM [inhibitor, partial curve, poor fit] | –
COc1cc(CN2CCc3ccccc3C2)ccc1O | inconclusive: 31.6 µM [inhibitor, partial curve, poor fit] | –
CCn1c(=O)cc(OCC(=O)N2CCN(c3ccc(C)cc3)C(C)C2)c2ccccc21 (centres undefined) | inconclusive: 35.5 µM [inhibitor, partial curve, poor fit] | –
CC1CCC(NC(=O)c2ccc(CS(=O)(=O)c3ccc(Cl)cc3)o2)CC1 (centres undefined) | inconclusive: 31.6 µM [inhibitor, partial curve, poor fit] | –
O=Nc1c(O)c2ccccc2c2ccccc12 | inconclusive: 11.2 µM [inhibitor, partial curve, poor fit] | –
O=C(NCc1ccc(Cl)cc1)c1ccc(Cn2cc(C(F)(F)F)ccc2=O)cc1 | inconclusive: 25.1 µM [inhibitor, partial curve, poor fit] | –
O=C(NCc1ccccc1)C(=O)NCC(c1ccco1)S(=O)(=O)c1ccc(Cl)cc1 (centres undefined) | inconclusive: 31.6 µM [inhibitor, partial curve, poor fit] | –
CSC1=NC(C)(C)C=C(/C=C/c2ccc(Cl)cc2)N1 | inconclusive: 20 µM [inhibitor, partial curve, poor fit] | –
COC(=O)c1ccc(NC(=O)Nc2ccc(F)c(Cl)c2)cc1 | inconclusive: 39.8 µM [inhibitor, single point] | –
CCOC(=O)N1CCN(C(=O)C2CCN(c3ncnc4c3sc3cccc(F)c34)CC2)CC1 | inconclusive: 14.1 µM [inhibitor, partial curve, poor fit] | –
CCOC(=O)c1ccc(NC(=O)c2ccc(CN3CCOCC3)cc2)cc1 | inconclusive: 25.1 µM [inhibitor, partial curve, poor fit] | –
Cc1c(C(=O)NCc2ccc3c(c2)OCCO3)sc(=O)n1Cc1ccc(S(=O)(=O)N(C)C)cc1 | inconclusive: 14.1 µM [inhibitor, partial curve, poor fit] | –
CCCOc1ccc(C(=O)NC(=S)N2CCN(c3ncc4c(=O)c(C(=O)O)cn(CC)c4n3)CC2)cc1 | inconclusive: 39.8 µM [inhibitor, partial curve, poor fit] | –
O=[N+]([O-])c1ccc(CN2CC=C(c3ccccc3)CC2)cc1 | inconclusive: 7.08 µM [inhibitor, partial curve] | –
CCCCN(CCCC)c1nc(-c2ccncc2)nc2ccccc12 | inconclusive: 28.2 µM [inhibitor, partial curve, poor fit] | –
CC(C)CN1CCN(C(=O)COC(=O)c2ccc(S(C)(=O)=O)c([N+](=O)[O-])c2)CC1 | inactive | –
COc1ccccc1N1CCN(C(=O)c2cc(CC(C)C)on2)CC1 | inconclusive: 6.31 µM [inhibitor, partial curve] | –
CN(c1ccc(F)cc1)S(=O)(=O)c1ccc(Cl)c(C(=O)Nc2ccncc2)c1 | inconclusive: 20 µM [inhibitor, partial curve, poor fit] | –
N=c1n(CC(=O)c2ccc([N+](=O)[O-])cc2)c2ccccc2n1Cc1ccccc1Cl | inconclusive: 28.2 µM [inhibitor, partial curve, poor fit] | –
CCC(C(=O)NCc1cc(OC)ccc1OC)n1nc(C)c2sc3ccccc3c2c1=O (centres undefined) | – | inconclusive: -34.2% [inhibitor]
COc1cc(C2CC(=O)Nc3ccccc3S2)cc(OC)c1OC (centres undefined) | inconclusive: 3.55 µM [inhibitor, full curve] | –
Cc1cccc(CS(=O)(=O)c2ncc(Cl)c(C(=O)Nc3nnc(C(C)C)s3)n2)c1 | inconclusive: 31.6 µM [inhibitor, partial curve, poor fit] and inconclusive: 8.91 µM [inhibitor, full curve, poor fit] | –
